Experimental findings from paper PMC3435375 are described below.

In experiment [1] the target is T1, GAL4BD fusion of K1AFERM, the FERM domain of KRIT1A (418-736) (pGBKT7-K1AFERM) (UniProt O00522).
T1 sequence: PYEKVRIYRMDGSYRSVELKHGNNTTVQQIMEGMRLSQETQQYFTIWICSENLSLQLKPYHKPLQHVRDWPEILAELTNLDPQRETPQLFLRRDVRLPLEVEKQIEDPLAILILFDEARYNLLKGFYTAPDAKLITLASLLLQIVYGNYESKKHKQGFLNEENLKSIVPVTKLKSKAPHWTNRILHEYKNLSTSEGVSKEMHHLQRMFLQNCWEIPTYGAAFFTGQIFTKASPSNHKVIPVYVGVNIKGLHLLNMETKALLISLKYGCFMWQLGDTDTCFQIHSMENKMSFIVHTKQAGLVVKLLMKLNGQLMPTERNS
The experiment is described as follows: two-hybrid; small-scale assay; pGADT7-Nd1-L cotransformed with pGBKT7 KRIT1 constructs into AH109; growth on medium lacking His and Ade (HIS3, ADE2) and beta-galactosidase filter assay (LACZ).

Experiment [2] concerns the target T2, GAL4BD fusion of K1AΔ207, the N-terminal truncated portion of KRIT1A (208-736) (UniProt O00522).
T2 sequence: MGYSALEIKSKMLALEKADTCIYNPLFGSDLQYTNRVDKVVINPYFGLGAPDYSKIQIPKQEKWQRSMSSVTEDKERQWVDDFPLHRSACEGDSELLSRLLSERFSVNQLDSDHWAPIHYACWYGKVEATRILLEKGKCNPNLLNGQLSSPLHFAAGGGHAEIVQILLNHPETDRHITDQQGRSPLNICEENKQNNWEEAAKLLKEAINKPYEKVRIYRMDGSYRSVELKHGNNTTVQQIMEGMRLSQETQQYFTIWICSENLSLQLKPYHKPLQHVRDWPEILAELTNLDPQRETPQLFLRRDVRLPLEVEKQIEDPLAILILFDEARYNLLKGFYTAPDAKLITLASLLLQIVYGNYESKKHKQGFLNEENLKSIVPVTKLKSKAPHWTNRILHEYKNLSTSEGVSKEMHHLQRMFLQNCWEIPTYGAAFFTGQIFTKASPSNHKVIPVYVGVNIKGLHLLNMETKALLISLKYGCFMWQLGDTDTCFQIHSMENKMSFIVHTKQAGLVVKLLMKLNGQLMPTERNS
Described as above.

Experiment [3] addresses GAL4BD fusion of K207NT, KRIT1 N-terminal fragment (residues 1-207) (UniProt O00522). Described as above.
Experiment [4] concerns the target GAL4BD fusion of full-length KRIT1A (pGBKT7) (UniProt O00522). The description is as above.
Experiment [5] deals with T3, GAL4BD-K272NT, the N-terminal 272 aa fragment of KRIT1 fused to the GAL4 DNA binding domain (UniProt O00522).
T3 sequence: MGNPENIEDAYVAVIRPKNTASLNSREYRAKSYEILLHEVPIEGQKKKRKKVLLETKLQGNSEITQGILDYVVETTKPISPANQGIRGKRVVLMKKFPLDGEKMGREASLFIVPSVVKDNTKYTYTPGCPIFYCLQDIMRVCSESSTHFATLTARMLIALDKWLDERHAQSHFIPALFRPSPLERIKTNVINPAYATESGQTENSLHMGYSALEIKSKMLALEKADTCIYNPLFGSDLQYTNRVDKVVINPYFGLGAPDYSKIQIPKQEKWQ
Described as above.

Experiment [6] concerns the target GFP-KRIT1A (EGFP-tagged full-length KRIT1A, pEGFP-KRIT1A) (UniProt O00522). Description: co-IP; HEK293 cells co-transfected with EGFP-KRIT1A or EGFP-KRIT1B and 2FLAG-Nd1-L; precipitated with anti-KRIT1, blotted with anti-FLAG.
For experiment [7], the target named is T4, GST-K1AFERM, the FERM domain of KRIT1A fused to GST (UniProt O00522).
T4 sequence: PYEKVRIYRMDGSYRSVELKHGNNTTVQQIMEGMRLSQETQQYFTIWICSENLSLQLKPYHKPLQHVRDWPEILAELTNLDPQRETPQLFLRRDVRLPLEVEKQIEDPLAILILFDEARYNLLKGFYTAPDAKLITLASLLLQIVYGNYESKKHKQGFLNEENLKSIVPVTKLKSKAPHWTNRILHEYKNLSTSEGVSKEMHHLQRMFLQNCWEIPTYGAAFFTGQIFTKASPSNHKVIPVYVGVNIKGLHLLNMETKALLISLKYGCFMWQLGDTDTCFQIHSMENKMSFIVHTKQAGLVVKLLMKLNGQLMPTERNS
The experiment is described as follows: pull-down; GST fusion proteins (40 ug) immobilised on glutathione-sepharose 4B beads, incubated 1 h at room temperature with HEK293 lysates overexpressing GFP- or 2FLAG-tagged proteins; washed three times with PBS; anti-GFP or anti-FLAG western blot; only the target purified.

The target in experiment [8] is T5, GST-K272NT (UniProt O00522).
T5 sequence: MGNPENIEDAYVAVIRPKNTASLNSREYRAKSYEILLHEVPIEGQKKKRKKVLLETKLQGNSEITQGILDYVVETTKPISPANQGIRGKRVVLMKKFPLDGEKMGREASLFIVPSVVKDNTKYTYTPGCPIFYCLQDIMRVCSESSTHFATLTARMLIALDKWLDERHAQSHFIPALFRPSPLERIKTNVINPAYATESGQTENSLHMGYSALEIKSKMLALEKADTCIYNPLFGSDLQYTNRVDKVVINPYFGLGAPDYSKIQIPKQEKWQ
Described as above.

Experiment [9] addresses GST-KRIT1A (full length KRIT1A in pGEX-4T1) (UniProt O00522). The experiment is described as above.
The target in experiment [10] is T6, GST-Nd1-L (496-642) fusion protein (mouse) (UniProt Q920Q8).
T6 sequence: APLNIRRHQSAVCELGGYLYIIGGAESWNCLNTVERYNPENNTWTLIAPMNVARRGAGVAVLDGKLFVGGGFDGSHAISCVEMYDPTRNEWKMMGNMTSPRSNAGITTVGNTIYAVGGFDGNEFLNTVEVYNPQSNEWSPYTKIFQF
The experiment is described as above.

The target in experiment [11] is T3, GAL4BD-K272NT, the N-terminal 272 aa fragment of KRIT1 fused to the GAL4 DNA binding domain. The experiment is described as follows: two-hybrid; GAL4 … system 3; pGBKT7-K272NT bait in AH109 mated with Y187 carrying a mouse embryo cDNA library in pACT2; positives rescued and retransformed into pGBKT7-K272NT- or pGBKT7-containing AH109; growth on SD/-Trp/-Leu/-His/-Ade.

Results are given in words; binding and its absence hold for the method and conditions named. For some assays here: Binding seen in cells or lysates may run through a third protein. Some results given as binding are weak or reduced against the parent protein; the word gives no strength. Tags and fused reporters may be left off the sequences shown.

B1: GAL4AD fusion of full-length Nd1-L (pGADT7-Nd1-L) (protein, UniProt Q920Q8-1 1-642)
chain: MIPNGYLMFEDENFIESSVAKLNALRKSGQFCDVRLQVCGHEMLAHRAVLACCSPYLFEIFNSDSDPHGVSHVKLDDLNPEAVEVLLNYAYTAQLKADKELVKDVYSAAKKLKMDRVKQVCGDYLLSRMDVTSCISYRNFASCMGDSRLLNKVDAYIQEHLLQISEEEEFLKLPRLKLEVMLEDNVCLPSNGKLYTKVINWVQRSIWENGDSLEELMEEVQTLYYSADHKLLDGNPLDGQAEVFGSDDDHIQFVQKKPPRENGHKQISGSSTGCLSSPNASMQSPKHEWKIVASEKTSNNTYLCLAVLDSTFCVIFLHGRNSPQSSPTSTPKLSKSLSFEMQPDELLEKPMSPMQYARSGLGTAEMNGKLIAAGGYNREECLRTVECYDPHTDHWSFLAPMRTPRARFQMAVLMGQLYVVGGSNGHSDDLSCGEMYDPNIDDWTPVPELRTNRCNAGVCALNGKLYIVGGSDPYGQKGLKNCDVFDPVTKSWTSCAPLNIRRHQSAVCELGGYLYIIGGAESWNCLNTVERYNPENNTWTLIAPMNVARRGAGVAVLDGKLFVGGGFDGSHAISCVEMYDPTRNEWKMMGNMTSPRSNAGITTVGNTIYAVGGFDGNEFLNTVEVYNPQSNEWSPYTKIFQF
As for B1, the binding entry in experiment [1] is on record as “binds”; in experiment [2] it was “binds”; in [3], “no binding”; in [4], “binds”; in experiment [5], “binds”.

B2: 2FLAG-Nd1-L (pCR-2FLAG-Nd1-L, murine full-length Nd1-L) (protein, UniProt Q920Q8-1 1-642)
chain: MIPNGYLMFEDENFIESSVAKLNALRKSGQFCDVRLQVCGHEMLAHRAVLACCSPYLFEIFNSDSDPHGVSHVKLDDLNPEAVEVLLNYAYTAQLKADKELVKDVYSAAKKLKMDRVKQVCGDYLLSRMDVTSCISYRNFASCMGDSRLLNKVDAYIQEHLLQISEEEEFLKLPRLKLEVMLEDNVCLPSNGKLYTKVINWVQRSIWENGDSLEELMEEVQTLYYSADHKLLDGNPLDGQAEVFGSDDDHIQFVQKKPPRENGHKQISGSSTGCLSSPNASMQSPKHEWKIVASEKTSNNTYLCLAVLDSTFCVIFLHGRNSPQSSPTSTPKLSKSLSFEMQPDELLEKPMSPMQYARSGLGTAEMNGKLIAAGGYNREECLRTVECYDPHTDHWSFLAPMRTPRARFQMAVLMGQLYVVGGSNGHSDDLSCGEMYDPNIDDWTPVPELRTNRCNAGVCALNGKLYIVGGSDPYGQKGLKNCDVFDPVTKSWTSCAPLNIRRHQSAVCELGGYLYIIGGAESWNCLNTVERYNPENNTWTLIAPMNVARRGAGVAVLDGKLFVGGGFDGSHAISCVEMYDPTRNEWKMMGNMTSPRSNAGITTVGNTIYAVGGFDGNEFLNTVEVYNPQSNEWSPYTKIFQF
As for B2, the binding result in experiment [6], in experiment [7], in experiment [8] and in [9] was “binds” in each case.

B3: GFP-K272NT (EGFP-tagged K272NT, pEGFP-C2) (domain or fragment, UniProt O00522 1-272)
chain: MGNPENIEDAYVAVIRPKNTASLNSREYRAKSYEILLHEVPIEGQKKKRKKVLLETKLQGNSEITQGILDYVVETTKPISPANQGIRGKRVVLMKKFPLDGEKMGREASLFIVPSVVKDNTKYTYTPGCPIFYCLQDIMRVCSESSTHFATLTARMLIALDKWLDERHAQSHFIPALFRPSPLERIKTNVINPAYATESGQTENSLHMGYSALEIKSKMLALEKADTCIYNPLFGSDLQYTNRVDKVVINPYFGLGAPDYSKIQIPKQEKWQ
Turning to B3, in experiment [10], the binding result is recorded as “binds”.

B4: C17 clone, Nd1-L (496-642) fused with GAL4AD in the pACT2 vector (domain or fragment, UniProt Q920Q8-1 496-642)
chain: APLNIRRHQSAVCELGGYLYIIGGAESWNCLNTVERYNPENNTWTLIAPMNVARRGAGVAVLDGKLFVGGGFDGSHAISCVEMYDPTRNEWKMMGNMTSPRSNAGITTVGNTIYAVGGFDGNEFLNTVEVYNPQSNEWSPYTKIFQF
As for B4, the binding result in experiment [11] is listed as “binds”.
